Measurements as given in PubChem BioAssay AID540256 (National Center for Advancing Translational Sciences (NCATS), 2011).
Where “and” joins values, the source holds several entries; their conditions need not be identical. Identical values can stand only once. The campaign covered roughly 300,000 compounds. About 3,700 (1.2%) were called active. Inconclusive results, whose numbers are uncertain, are shown with a selection of clear calls. The call rests on the fitted dose curve; tested in HEK293 cells. Potencies beside an inconclusive call are fits to weak or partial responses and may not hold up.

test: qHTS for Inhibitors of binding or entry into cells for Lassa Virus; conditions: Lassa virus pseudotype entry inhibition, cell reporter; activity change, negative = inhibition: at 37.9 µM (top of the series) unless noted; further: nearly all actives have a fitted effect of over 50% in size
On the % scale 0 is the no-effect control and ±100 the full control effect; potency means the concentration at half of the fitted maximal effect.

Row | Structure (SMILES) | Potency | activity change, negative = inhibition
1 | COc1ccc(C)cc1NC(=O)c1cc(C2CC2)nc2c1c(C)nn2C1CCS(=O)(=O)C1 (configuration not stated) | inconclusive: 35.5 µM [inhibitor, single point] | –
2 | CCOC(=O)C(=Cc1ccccc1OC)C(=O)OCC | inconclusive: 12.6 µM [inhibitor, partial curve, poor fit] | –
3 | CC(Sc1nc2ccccc2c(=O)n1Cc1ccco1)C(=O)c1ccccc1 (configuration not stated) | active: 4.11 µM | –
4 | O=C(N/N=C1\CCCCc2ccccc21)c1ccccn1 | inconclusive: 4.47 µM [activator, full curve, poor fit] | –
5 | CSc1cccc(NC(=O)C2CCCN(S(=O)(=O)c3cccs3)C2)c1 (configuration not stated) | inconclusive: 20 µM [inhibitor, partial curve, poor fit] | –
6 | COc1cc(/C=N/NC(=O)CCn2c3ccccc3c3ccccc32)ccc1O | inconclusive: 0.0259 µM [inhibitor, full curve, poor fit] | –
7 | CCN(CC)CCCNC(=O)C1c2ccccc2C(=O)N1Cc1ccc(C)cc1 (configuration not stated) | inconclusive: 0.146 µM [inhibitor, full curve, poor fit] | –
8 | CCOC(=O)c1ccccc1NC(=O)c1cc2ccc3cccnc3c2[nH]1 | inconclusive: 14.1 µM [activator, partial curve, poor fit] | –
9 | O=[N+]([O-])c1cccc(-n2nncc2-c2ccccc2)c1 | – | inactive: 8.51% [at 46.1 µM]
10 | CC1(C)N=C(N)NC(Nc2ccc(Cl)cc2)=N1 | – | inactive: 7.27% [at 46.1 µM]
11 | COC(=O)C1=C(C)N(CCc2ccccc2)C(=O)/C1=C\c1ccco1 | inconclusive: 6.31 µM [activator, single point] | –
12 | CC(=O)OC1COC(n2ccc3cc([N+](=O)[O-])ccc32)C(OC(C)=O)C1OC(C)=O (configuration not stated) | – | inactive: 11.6%
13 | O=C(CN1C(=O)c2cccc3cccc1c23)Nc1ccccc1Br | inconclusive: 12.6 µM [activator, partial curve, poor fit] | –
14 | CCN(CC)S(=O)(=O)c1cc(NC(=O)Cc2n[nH]c(=O)c3ccccc23)ccc1C | inconclusive: 15.8 µM [inhibitor, partial curve, poor fit] | –
15 | Cn1nc(C(=O)N2CCN(c3ccccc3F)CC2)c2c1-c1ccccc1S(=O)(=O)C2 | inconclusive: 3.16 µM [inhibitor, single point] | –
16 | CCCC(=O)Nc1sc(C)c(-c2ccc(C(C)CC)cc2)c1C#N (configuration not stated) | inconclusive: 2.06 µM [inhibitor, full curve] | –
17 | C[C@]12CCC3C(CC[C@H]4CC(O)CC[C@]34C)C1CC/C2=N/NC(=O)c1ccncc1 (some centres not stated) | inconclusive: 12.6 µM [activator, single point] | –
18 | Cc1cc(C(=O)OCC(=O)N2CC(C)OC(C)C2)c2ccccc2n1 (configuration not stated) | – | inconclusive: 1.91% [activator]
19 | CCOC(=O)CSc1nc(C(C)C)nc2ccccc12 | inconclusive: 3.26 µM [activator, single point] | –
20 | O=C(O)CC1CC(c2ccccc2)=NO1 (configuration not stated) | inconclusive: 0.0073 µM [activator, full curve, poor fit] | –
21 | COc1cc(Br)c(C(=O)c2nccc3cc(OC)c(OC)cc23)cc1OC | inconclusive: 35.5 µM [inhibitor, partial curve, poor fit] | –

Row | Structure (SMILES) | Potency | activity change, negative = inhibition
22 | O=C(O)CCCCCn1c(O)c(C=C2N=c3ccccc3=N2)sc1=S | – | inactive: -0.188%
23 | O=C(c1cc(-c2ccc(F)cc2)on1)N1CCN(c2ccc(F)cc2)CC1 | inconclusive: 1 µM [inhibitor, single point] | –
24 | CC(C)(CO)N=C1NS(=O)(=O)c2cc([N+](=O)[O-])ccc21 | inconclusive: 14.1 µM [inhibitor, single point] | –
25 | COC(=O)c1sccc1NC(=O)CC1C(=O)NCCN1C(=O)c1c(F)cccc1Cl (configuration not stated) | inconclusive: 35.5 µM [inhibitor, single point] | –
26 | CCCCN(CC)CCCNC(=O)c1cn(CC)c2ccc(S(=O)(=O)N3CCc4ccccc4C3)cc2c1=O | inconclusive: 35.5 µM [inhibitor, single point] and inconclusive: 22.4 µM [inhibitor, single point] | –
27 | S=C(Nc1ccc(Cl)cc1)N1CCOCC1 | inconclusive: 29.1 µM [activator, single point] | –
28 | CC1CN/C(=C\C(=O)c2ccc(Cl)cc2)C(=O)N1 (configuration not stated) | inconclusive: 14.6 µM [inhibitor, partial curve, poor fit] | –
29 | CC(=O)c1cccc(NC(=O)CN2C(=O)CC(c3ccc(C)cc3C)=Nc3ccccc32)c1 | inconclusive: 3.55 µM [activator, single point] | –
30 | O=C(O/N=C\c1ccc(N2CCOCC2)c([N+](=O)[O-])c1)c1ccccc1Cl | – | inactive: -1.14%
31 | O=C(CN1C(=O)C2CCCCN2C(=O)c2ccccc21)N1CCCc2ccccc21 (configuration not stated) | inconclusive: 31.6 µM [activator, partial curve, poor fit] | –
32 | O=c1c2sc3nc(N4CCOCC4)c4c(c3c2ncn1-c1ccccc1)CCCC4 | inconclusive: 12.6 µM [inhibitor, partial curve, poor fit] | –
33 | CCOC(=O)c1c(C)oc2c1c1c(c3ccccc32)OCN(Cc2ccccn2)C1 | inconclusive: 35.5 µM [activator, single point] | –
34 | COC(=O)c1c(C)[nH]c(C(=O)OCC(=O)c2ccc(C)s2)c1C | inconclusive: 15.8 µM [inhibitor, partial curve, poor fit] | –
35 | COc1cc(C2(c3ccc(O)c(OC)c3)C(=O)Nc3c(C)cc(Br)cc32)ccc1O | inconclusive: 15.8 µM [inhibitor, partial curve, poor fit] | –
36 | COc1ccc(NS(=O)(=O)c2cccc(C(=O)N3CCCCCC3)c2)cc1 | inconclusive: 10 µM [inhibitor, partial curve, poor fit] | –
37 | CN(C)c1ccc(SC#N)cc1 | – | inactive: -5.55%
38 | CCOC(=O)N1CCN(C(=O)c2c[nH]c3ccc(S(=O)(=O)N(C)c4ccc(OCC)cc4)cc3c2=O)CC1 | – | inactive: -0.478% [at 46.1 µM]
39 | CCOc1ccc(CC(=O)NCc2ccc3c(c2)CCN3C(=O)c2ccccc2)cc1OCC | inconclusive: 12.6 µM [inhibitor, single point] | –
40 | COc1ccc(NC(=O)CC2C(=O)N(c3cccc(OC)c3)C(=O)N2CCC2=CCCCC2)cc1 (configuration not stated) | active: 11.2 µM | –
41 | O=C(N/N=C/c1ccccn1)c1cc(-c2ccc(Cl)s2)[nH]n1 | – | inactive: -15.1% [at 46.1 µM]
42 | COc1cc2ccccc2cc1C(=O)N(CCN(C)C)c1nc2c(C)cccc2s1 | inconclusive: 35.5 µM [inhibitor, single point] | –

Row | Structure (SMILES) | Potency | activity change, negative = inhibition
43 | CCN(CC)CCNc1ncnc2c1sc1nc(N3CCCC3)c3c(c12)CC(C)(C)OC3 | inconclusive: 35.5 µM [inhibitor, single point] | –
44 | Cc1nc(-c2ccc(C(=O)Nc3ccccc3F)cc2)cs1 | inconclusive: 3.55 µM [inhibitor, partial curve, poor fit] | –
45 | CCC(C)(C)C1CCc2c(sc(N)c2C(N)=O)C1 (configuration not stated) | inconclusive: 5.8 µM [inhibitor, partial curve, poor fit] | –
46 | CCOc1ccccc1CNS(=O)(=O)c1cc2c(cc1C)NC(=O)CO2 | inconclusive: 0.891 µM [inhibitor, partial curve, poor fit] | –
47 | COc1ccc(OC)c(NC(=O)Nc2cccc3ccccc23)c1 | – | inactive: -27.1% [at 14.3 µM]
48 | Cc1ccc(C)c(N2CCN(S(=O)(=O)c3ccc(C(=O)N(C)C)s3)CC2)c1 | inconclusive: 1.26 µM [inhibitor, partial curve, poor fit] | –
49 | COC(=O)C1=C(C)N(Cc2ccccc2)C(=NCc2ccc3c(c2)OCO3)NC1CCc1ccccc1 (configuration not stated) | inconclusive: 0.944 µM [inhibitor, partial curve, poor fit] | –
50 | COc1ccc(/C=C/c2cc(C(F)(F)F)[nH]c(=O)n2)cc1OC | inconclusive: 7.08 µM [inhibitor, full curve, poor fit] | –
51 | O=C(O)/C=C\C(=O)Nc1cccc(C(=O)Nc2cccc(O)c2)c1 | – | inactive: 0.64%
52 | O=C(c1ccco1)N1CCN(Cc2ccc(F)cc2Cl)CC1 | – | inactive: 18.7%
53 | CCC1CCCCN1C(=O)CSc1nnc(CNC(=O)c2ccco2)o1 (configuration not stated) | inconclusive: 1.12 µM [activator, full curve, poor fit] | –
54 | COc1ccc(CCNCc2c(C(=O)O)c(C)n(Cc3cccc(Cl)c3)c2C)c(OC)c1OC | – | inactive: 0.652% [at 46.1 µM]
55 | CCOC(=O)c1ccc2c(c1)n(Cc1ccccc1)c(C)[n+]2CC | inconclusive: 15.8 µM [inhibitor, single point] | –
56 | Cc1ccc(SCCC(=O)N/N=C/c2ccncc2)cc1 | inconclusive: 6.31 µM [inhibitor, partial curve, poor fit] | –
57 | COc1ccccc1OCC(=O)Nc1nc(-c2ccc(S(=O)(=O)N3CCOCC3)cc2)cs1 | inconclusive: 35.5 µM [inhibitor, single point] | –
58 | CCOc1ccc(-n2c(SCC(=O)Nc3ccc(CC)cc3)nc3n[nH]c(C)c3c2=N)cc1 | inconclusive: 10 µM [inhibitor, partial curve, poor fit] | –
59 | CN(CC(O)COc1c(F)cc(Br)cc1F)C1CCCCC1 (configuration not stated) | inconclusive: 4.11 µM [inhibitor, full curve, poor fit] | –
60 | CCOCCCNC(=O)C(c1ccc(OC)cc1)N(Cc1ccc2c(c1)OCO2)C(=O)c1cnccn1 (configuration not stated) | inconclusive: 10 µM [inhibitor, partial curve, poor fit] | –
61 | COc1ccc(NC(=O)CNC(=O)c2nn(-c3ccc(OC)c(Cl)c3)c(=O)c3ccccc23)c(OC)c1 | inconclusive: 8.91 µM [inhibitor, partial curve, poor fit] | –
62 | Cc1ccc2c(c1)C(c1ccccc1)N(C(=O)c1ccccc1[N+](=O)[O-])CC(=O)N2 (configuration not stated) | inconclusive: 7.94 µM [inhibitor, partial curve, poor fit] | –
